Values of other authors as cited in patent publication US8790735B2, “Method of preferentially reducing absorption of saturated fat and compositions” (General Mills, Inc., priority 2005, dated 2014).

Conditions: 25° C.; cited from earlier work

In the case of `OC[C@H]1O[C@@H]2O[C@H]3[C@H](O)[C@@H](O)[C@@H](O[C@H]4[C@H](O)[C@@H](O)[C@@H](O[C@H]5[C@H](O)[C@@H](O)[C@@H](O[C@H]6[C@H](O)[C@@H](O)[C@@H](O[C@H]7[C@H](O)[C@@H](O)[C@@H](O[C@H]1[C@H](O)[C@H]2O)O[C@@H]7CO)O[C@@H]6CO)O[C@@H]5CO)O[C@@H]4CO)O[C@@H]3CO` [α-cyclodextrin, alpha-cyclodextrin], the solubility in water is given as “about 14 gm/100 mL”.
